According to PubChem BioAssay AID330 (DTP/NCI, 2004):
The list is a part of this screen's results and no random one: it gathers tests that were run many times, whatever their T/C, doses with no T/C, and many T/C values between a quarter and a half above the control. Other doses and runs of a compound stand elsewhere. T/C: endpoint of the treated group in % of that of the vehicle group. Some doses have a count of surviving animals in place of a T/C: the source holds a T/C of zero for them, seemingly a mark for toxic or unscored doses. Some survivor counts are full or nearly so, which does not show that the dose was tolerated: the source hardly ever lists a survival T/C far under the control, and the zero likely stands for such cases as well. Counts of survivors are from the toxicity check (mostly the fifth day) where no day follows; animals may have died later. Schedules are NCI's codes, read here as Q, the interval in days (D) or hours (H), X, the number of doses. For survival time, this PubChem deposit counts one and a half times the control or more as active, and values a quarter to a half above the control carry no call in these data; other NCI protocols may use other cut-offs. Some entries were tested several times; the values are given in rising order.

Test system: P388 leukemia ip, CD2F1 mice, survival T/C
Test: NCI In Vivo Anticancer Drug Screen. Data for tumor model P388 Leukemia (intraperitoneal) in CD2F1 (CDF1) mice
Conditions: T/C endpoint: median survival time, higher T/C = longer survival
[1] = dose: 200.0 mg/kg/injection, schedule: Q01DX005 (ip), vehicle: saline with Tween-80
[2] = dose: 120.0 mg/kg/injection, schedule: Q01DX005 (ip), vehicle: saline with Tween-80
[3] = dose: 240.0 mg/kg/injection, schedule: Q01DX005 (ip), vehicle: saline with Tween-80
[4] = dose: 200.0 mg/kg/injection, schedule: Q04DX003 (ip), vehicle: Klucel (hydroxypropylcellulose) (HPC)
[5] = dose: 400.0 mg/kg/injection, schedule: Q04DX003 (ip), vehicle: Klucel (hydroxypropylcellulose) (HPC)
[6] = dose: 50.0 mg/kg/injection, schedule: Q01DX009 (ip), vehicle: saline with Tween-80
[7] = dose: 200.0 mg/kg/injection, schedule: Q01DX009 (ip), vehicle: saline with Tween-80
[8] = dose: 50.0 mg/kg/injection, schedule: Q01DX005 (ip), vehicle: saline
[9] = dose: 200.0 mg/kg/injection, schedule: Q01DX005 (ip), vehicle: saline
[10] = dose: 12.5 mg/kg/injection, schedule: Q01DX005 (ip), vehicle: Klucel (hydroxypropylcellulose) (HPC)

NCCCNCCCNc1nc2nc(N)nc(N)c2nc1-c1ccc([N+](=O)[O-])cc1 was tested, and the survivor count (dose: 100.0 mg/kg/injection, schedule: Q01DX005 (ip), vehicle: saline with Tween-80) was 0 of 6 and the survivor count [1] was 0 of 6.
For c1ccc([As+](c2ccccc2)(c2ccccc2)c2ccccc2)cc1, the T/C (dose: 1.25 mg/kg/injection, schedule: Q04DX003 (ip), vehicle: saline) was 131 % of control, the T/C (dose: 2.5 mg/kg/injection, schedule: Q04DX003 (ip), vehicle: saline) was 136 % of control and the T/C (dose: 5.0 mg/kg/injection, schedule: Q04DX003 (ip), vehicle: saline) was 140 % of control.
For O=C(/C=C/c1c(-c2ccccc2)[nH]c2ccccc12)c1ccccc1O, the survivor count (dose: 60.0 mg/kg/injection, schedule: Q01DX005 (ip), vehicle: saline with Tween-80) was 6 of 6 and the survivor count [2] was 6 of 6.
For O=C(NC(C(=O)NC(C(=O)O)C1CC(Cl)=NO1)C1CC(Cl)=NO1)OCC1c2ccccc2-c2ccccc21 (centres undefined), the T/C (dose: 6.2 mg/kg/injection, schedule: Q04DX003 (ip), vehicle: other) was 129 % of control, the T/C (dose: 10.0 mg/kg/injection, schedule: Q04DX003 (ip), vehicle: other) was 129 % of control and the T/C (dose: 20.0 mg/kg/injection, schedule: Q04DX003 (ip), vehicle: other) was 145 % of control. For the same compound, the survivor count (dose: 100.0 mg/kg/injection, schedule: Q04DX003 (ip), vehicle: other) was 5 of 6 and the survivor count (dose: 200.0 mg/kg/injection, schedule: Q04DX003 (ip), vehicle: other) was 4 of 6.
With Cn1c(=O)ccc2c(=O)c3ccccc3[se]c21 the survivor count (dose: 79.25 mg/kg/injection, schedule: Q01DX001 (ip), vehicle: saline with Tween-80) was 0 of 6, the survivor count (dose: 158.5 mg/kg/injection, schedule: Q01DX001 (ip), vehicle: saline with Tween-80) was 0 of 6 and the survivor count (dose: 317.0 mg/kg/injection, schedule: Q01DX001 (ip), vehicle: saline with Tween-80) was 0 of 6.
In the case of CC(=O)OC1C(c2ccc(Cl)cc2)CC2CCC1N2C (centres undefined), the survivor count [1] is reported as 0 of 6.
For CC1=C(O)C(=O)[C@@H]2O[C@@H]2C1=O, the T/C (dose: 3.0 mg/kg/injection, schedule: Q01DX009 (ip), vehicle: saline) was 130 % of control, the T/C (dose: 6.0 mg/kg/injection, schedule: Q01DX009 (ip), vehicle: saline) was 128 % of control and the T/C (dose: 12.0 mg/kg/injection, schedule: Q01DX007 (ip), vehicle: saline) was 130 % of control. For the same compound, the T/C (dose: 12.0 mg/kg/injection, schedule: Q01DX009 (ip), vehicle: saline) was 139 % of control and the survivor count (dose: 24.0 mg/kg/injection, schedule: Q01DX009 (ip), vehicle: saline) was 5 of 6.
In the case of OCC12C=COC1OC2(c1ccccc1)c1ccccc1 (centres undefined), the survivor count [2] is reported as 6 of 6 and the survivor count [3] is reported as 1 of 6.
With CC(C(=O)S)C(O)(c1ccccc1)c1ccccc1 (centres undefined) the survivor count [4] was 0 of 6 and the survivor count [5] was 0 of 6.
For CNc1ccccc1C(=O)N1CCc2c([nH]c3ccccc23)C1=O, the survivor count [6] was 3 of 3.
In the case of C=CN=NNc1ccc(OC)cc1, the survivor count (dose: 400.0 mg/kg/injection, schedule: Q04DX003 (ip), vehicle: saline + Tween-80 + alcohol) is reported as 3 of 6.
With Cc1cc2nc(C/C(=N/O)c3ccncc3)c(C/C(=N/O)c3ccncc3)nc2cc1C the survivor count [3] was 6 of 6.
CCOP1(OCC)(OCC)OC(C(F)(F)F)(C(F)(F)F)C(C(F)(F)F)(C(F)(F)F)O1 was tested, and the survivor count (dose: 25.0 mg/kg/injection, schedule: Q01DX009 (ip), vehicle: saline with Tween-80) was 6 of 6, the survivor count [6] was 2 of 6 and the survivor count (dose: 100.0 mg/kg/injection, schedule: Q01DX009 (ip), vehicle: saline with Tween-80) was 0 of 6. For the same compound, the survivor count [7] was 0 of 6.
With O=c1n(-c2ccccc2)c(=O)n2n1C1C3C4C5C3C2C5(F)C41 (centres undefined) the survivor count [5] was 0 of 6.
With Nc1ncc[n+]2c(COCCCl)[nH]nc12 the survivor count (dose: 400.0 mg/kg/injection, schedule: Q01DX001 (ip), vehicle: Klucel (hydroxypropylcellulose) (HPC)) was 5 of 6.
In the case of CCc1ccc[n+](-c2ccncc2CC)c1, the survivor count (dose: 120.0 mg/kg/injection, schedule: Q01DX005 (ip), vehicle: saline) is reported as 3 of 6 and the survivor count (dose: 240.0 mg/kg/injection, schedule: Q01DX005 (ip), vehicle: saline) is reported as 0 of 6.
For COc1ccc(CSC(=S)Nc2cc(Cl)c(Cl)cc2Cl)cc1, the survivor count (dose: 200.0 mg/kg/injection, schedule: Q01DX009 (ip), vehicle: suspension in saline) was 2 of 6.
For CC1(C)OC(=O)C(=Cc2ccc([N+](=O)[O-])s2)C(=O)O1, the survivor count (dose: 400.0 mg/kg/injection, schedule: Q01DX009 (ip), vehicle: saline with Tween-80) was 1 of 6.
For COC(=O)/C=C(\NC1CC(OC2C[C@](O)(C(C)=O)Cc3c(O)c4c(c(O)c32)C(=O)c2c(OC)cccc2C4=O)OC(C)C1O)C(=O)OC (some centres undefined), the T/C (dose: 25.0 mg/kg/injection, schedule: Q04DX003 (ip), vehicle: saline with Tween-80) was 138 % of control and the T/C (dose: 50.0 mg/kg/injection, schedule: Q04DX003 (ip), vehicle: saline with Tween-80) was 147 and 148 % of control.
In the case of COc1cccc2c1C(=O)c1c(O)c3c(c(O)c1C2=O)C[C@@](O)(c1csc(-c2ccncc2)n1)C[C@@H]3OC1CC(N)C(O)C(C)O1 (some centres undefined), the T/C (dose: 100.0 mg/kg/injection, schedule: Q04DX003 (ip), vehicle: water) is reported as 135 % of control.
CC(N=Cc1ccccc1O)c1ccccc1.[CH-]=C([CH2-])C(C)(C)C.[Pd+2] (centres undefined) was tested, and the survivor count (dose: 50.0 mg/kg/injection, schedule: Q04DX003 (ip), vehicle: Klucel (hydroxypropylcellulose) (HPC)) was 0 of 6, the survivor count (dose: 100.0 mg/kg/injection, schedule: Q04DX003 (ip), vehicle: Klucel (hydroxypropylcellulose) (HPC)) was 0 of 6 and the survivor count [4] was 0 of 6.
In the case of COc1cc(C(=O)OC(C)CC2(c3ccccc3)C(=O)NC(=O)NC2=O)cc(OC)c1OC (centres undefined), the survivor count [7] is reported as 6 of 6.
In the case of CCCCCC(=O)C(CCCC)(c1nc2n(c1O)C(=N)N=N2)c1nc2n(c1O)C(=N)N=N2 (centres undefined), the T/C [1] is reported as 125 % of control.
c1cc[c]([Sn]2([c]3ccccc3)[O]CCNCC[O]2)cc1 was tested, and the T/C (dose: 12.5 mg/kg/injection, schedule: Q01DX005 (ip), vehicle: saline) was 140 % of control, the T/C [8] was 145 % of control and the survivor count [9] was 0 of 6.
In the case of CCOC(=C[P+](c1ccccc1)(c1ccccc1)c1ccccc1)OCC, the survivor count (dose: 6.25 mg/kg/injection, schedule: Q01DX005 (ip), vehicle: water) is reported as 4 of 5, the survivor count (dose: 12.5 mg/kg/injection, schedule: Q01DX005 (ip), vehicle: water) is reported as 6 of 6 and the survivor count (dose: 25.0 mg/kg/injection, schedule: Q01DX005 (ip), vehicle: water) is reported as 4 of 6. For the same compound, the survivor count [8] was 0 of 6, the survivor count (dose: 100.0 mg/kg/injection, schedule: Q01DX005 (ip), vehicle: saline) was 0 of 6 and the survivor count [9] was 0 of 6.
For CN=NNc1ccc(C)cc1, the survivor count (dose: 100.0 mg/kg/injection, schedule: Q01DX009 (ip), vehicle: distilled water + Tween-80) was 4 of 6 and the survivor count (dose: 200.0 mg/kg/injection, schedule: Q01DX009 (ip), vehicle: distilled water + Tween-80) was 1 of 6.
CC(=O)c1cc2c(cc1C(C)C)CC[C@H]1[C@](C)(C#N)CCC[C@]21C was tested, and the survivor count (dose: 25.0 mg/kg/injection, schedule: Q01DX009 (ip), vehicle: saline sonified) was 6 of 6.
With C[CH2][Sn]([CH2]C)([n]1cnc2ccccc21)[n]1cnc2ccccc21 the T/C (dose: 3.12 mg/kg/injection, schedule: Q01DX005 (ip), vehicle: Klucel (hydroxypropylcellulose) (HPC)) was 129 % of control, the T/C [10] was 126 % of control and the survivor count [10] was 1 of 6. For the same compound, the survivor count (dose: 50.0 mg/kg/injection, schedule: Q01DX005 (ip), vehicle: Klucel (hydroxypropylcellulose) (HPC)) was 0 of 6, the survivor count (dose: 100.0 mg/kg/injection, schedule: Q01DX005 (ip), vehicle: Klucel (hydroxypropylcellulose) (HPC)) was 0 of 6 and the survivor count (dose: 200.0 mg/kg/injection, schedule: Q01DX005 (ip), vehicle: Klucel (hydroxypropylcellulose) (HPC)) was 0 of 6.
